Test results taken from doi:10.1101/2021.08.20.457117.
Results are given in words; binding and its absence hold for the method and conditions named. In cells and extracts the contact can be indirect.

Protein sequences, listed by entry. Tags and fused reporters are not part of them.
UniProt Q9UKV8: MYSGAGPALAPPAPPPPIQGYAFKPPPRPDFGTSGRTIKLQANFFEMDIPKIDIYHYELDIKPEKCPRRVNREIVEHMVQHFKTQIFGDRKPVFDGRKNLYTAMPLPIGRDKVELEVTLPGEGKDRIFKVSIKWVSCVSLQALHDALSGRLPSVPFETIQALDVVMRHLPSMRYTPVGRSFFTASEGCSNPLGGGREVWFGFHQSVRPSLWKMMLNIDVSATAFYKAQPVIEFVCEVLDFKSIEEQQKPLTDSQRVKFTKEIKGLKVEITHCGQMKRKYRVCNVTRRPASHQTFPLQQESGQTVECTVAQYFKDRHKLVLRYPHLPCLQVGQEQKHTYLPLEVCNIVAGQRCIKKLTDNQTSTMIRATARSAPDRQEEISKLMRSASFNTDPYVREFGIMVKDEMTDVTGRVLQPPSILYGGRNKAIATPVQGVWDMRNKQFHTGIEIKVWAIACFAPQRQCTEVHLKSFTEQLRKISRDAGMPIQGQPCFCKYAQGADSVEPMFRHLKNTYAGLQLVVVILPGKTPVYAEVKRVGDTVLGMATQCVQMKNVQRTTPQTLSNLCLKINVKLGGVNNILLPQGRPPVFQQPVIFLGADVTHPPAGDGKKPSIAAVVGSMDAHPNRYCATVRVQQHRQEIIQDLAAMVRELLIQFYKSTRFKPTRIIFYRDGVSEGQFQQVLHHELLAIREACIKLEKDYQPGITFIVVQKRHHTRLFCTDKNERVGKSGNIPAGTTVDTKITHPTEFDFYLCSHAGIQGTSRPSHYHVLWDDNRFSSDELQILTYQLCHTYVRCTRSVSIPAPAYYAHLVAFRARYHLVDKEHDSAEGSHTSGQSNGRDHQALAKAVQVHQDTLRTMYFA

Target: AGO2 (human (endogenous in A549)) (UniProt Q9UKV8)
Assay: co-IP

B1: XRN2 (enzyme, UniProt Q9H0D6 1-950)
chain: MGVPAFFRWLSRKYPSIIVNCVEEKPKECNGVKIPVDASKPNPNDVEFDNLYLDMNGIIHPCTHPEDKPAPKNEDEMMVAIFEYIDRLFSIVRPRRLLYMAIDGVAPRAKMNQQRSRRFRASKEGMEAAVEKQRVREEILAKGGFLPPEEIKERFDSNCITPGTEFMDNLAKCLRYYIADRLNNDPGWKNLTVILSDASAPGEGEHKIMDYIRRQRAQPNHDPNTHHCLCGADADLIMLGLATHEPNFTIIREEFKPNKPKPCGLCNQFGHEVKDCEGLPREKKGKHDELADSLPCAEGEFIFLRLNVLREYLERELTMASLPFTFDVERSIDDWVFMCFFVGNDFLPHLPSLEIRENAIDRLVNIYKNVVHKTGGYLTESGYVNLQRVQMIMLAVGEVEDSIFKKRKDDEDSFRRRQKEKRKRMKRDQPAFTPSGILTPHALGSRNSPGSQVASNPRQAAYEMRMQNNSSPSISPNTSFTSDGSPSPLGGIKRKAEDSDSEPEPEDNVRLWEAGWKQRYYKNKFDVDAADEKFRRKVVQSYVEGLCWVLRYYYQGCASWKWYYPFHYAPFASDFEGIADMPSDFEKGTKPFKPLEQLMGVFPAASGNFLPPSWRKLMSDPDSSIIDFYPEDFAIDLNGKKYAWQGVALLPFVDERRLRAALEEVYPDLTPEETRRNSLGGDVLFVGKHHPLHDFILELYQTGSTEPVEVPPELCHGIQGKFSLDEEAILPDQIVCSPVPMLRDLTQNTVVSINFKDPQFAEDYIFKAVMLPGARKPAAVLKPSDWEKSSNGRQWKPQLGFNRDRRPVHLDQAAFRTLGHVMPRGSGTGIYSNAAPPPVTYQGNLYRPLLRGQAQIPKLMSNMRPQDSWRGPPPLFQQQRFDRGVGAEPLLPWNRMLQTQNAAFQPNQYQMLAGPGGYPPRRDDRGGRQGYPREGRKYPLPPPSGRYNWN
binding: no binding
